# Assay results from the supplement of paper PMC10032668.
# Protein sequences, listed by entry. Tags and fused reporters are not part of them.
# HIST1H1D, P16402, UniProt P16402, whole entry: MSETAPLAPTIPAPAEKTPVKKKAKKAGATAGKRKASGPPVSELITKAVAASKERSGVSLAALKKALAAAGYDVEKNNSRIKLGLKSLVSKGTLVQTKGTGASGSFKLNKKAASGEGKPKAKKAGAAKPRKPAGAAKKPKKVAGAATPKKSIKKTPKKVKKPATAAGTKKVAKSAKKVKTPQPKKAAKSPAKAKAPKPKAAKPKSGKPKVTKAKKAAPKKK
# INCENP, Q9NQS7, UniProt Q9NQS7, whole entry: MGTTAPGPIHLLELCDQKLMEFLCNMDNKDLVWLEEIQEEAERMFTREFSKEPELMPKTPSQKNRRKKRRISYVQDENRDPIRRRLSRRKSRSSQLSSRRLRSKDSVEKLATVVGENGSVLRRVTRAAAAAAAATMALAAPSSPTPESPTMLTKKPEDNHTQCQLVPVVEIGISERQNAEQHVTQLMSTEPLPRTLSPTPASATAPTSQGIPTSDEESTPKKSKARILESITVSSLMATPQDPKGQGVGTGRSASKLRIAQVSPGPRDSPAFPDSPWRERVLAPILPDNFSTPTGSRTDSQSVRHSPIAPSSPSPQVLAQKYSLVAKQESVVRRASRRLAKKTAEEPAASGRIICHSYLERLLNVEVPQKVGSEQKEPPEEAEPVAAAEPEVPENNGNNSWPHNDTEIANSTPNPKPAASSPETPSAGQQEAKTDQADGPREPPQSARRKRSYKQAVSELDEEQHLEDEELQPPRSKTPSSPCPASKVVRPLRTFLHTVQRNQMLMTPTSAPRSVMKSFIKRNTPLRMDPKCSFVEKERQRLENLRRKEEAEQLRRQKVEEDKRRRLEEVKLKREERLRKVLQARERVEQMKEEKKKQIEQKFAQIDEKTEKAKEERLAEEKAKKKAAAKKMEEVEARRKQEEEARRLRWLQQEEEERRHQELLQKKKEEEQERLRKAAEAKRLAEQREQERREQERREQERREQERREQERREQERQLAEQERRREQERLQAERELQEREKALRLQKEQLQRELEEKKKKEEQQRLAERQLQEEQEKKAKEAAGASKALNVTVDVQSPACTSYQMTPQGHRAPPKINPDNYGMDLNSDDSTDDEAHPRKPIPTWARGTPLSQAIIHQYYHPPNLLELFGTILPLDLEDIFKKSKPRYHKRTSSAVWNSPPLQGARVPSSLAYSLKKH
# MORF4L1, Q9UBU8, UniProt Q9UBU8, whole entry: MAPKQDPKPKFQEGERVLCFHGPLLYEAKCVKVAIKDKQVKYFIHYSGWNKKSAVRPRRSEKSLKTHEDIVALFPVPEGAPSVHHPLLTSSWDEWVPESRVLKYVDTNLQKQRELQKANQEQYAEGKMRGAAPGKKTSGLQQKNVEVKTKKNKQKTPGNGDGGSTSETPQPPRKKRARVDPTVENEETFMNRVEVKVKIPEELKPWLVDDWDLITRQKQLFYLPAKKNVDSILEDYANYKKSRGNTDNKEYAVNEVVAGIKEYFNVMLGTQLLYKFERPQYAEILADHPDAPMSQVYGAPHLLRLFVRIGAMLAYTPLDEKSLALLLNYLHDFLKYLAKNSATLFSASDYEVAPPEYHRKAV
# MORF4L2, Q15014, UniProt Q15014, whole entry: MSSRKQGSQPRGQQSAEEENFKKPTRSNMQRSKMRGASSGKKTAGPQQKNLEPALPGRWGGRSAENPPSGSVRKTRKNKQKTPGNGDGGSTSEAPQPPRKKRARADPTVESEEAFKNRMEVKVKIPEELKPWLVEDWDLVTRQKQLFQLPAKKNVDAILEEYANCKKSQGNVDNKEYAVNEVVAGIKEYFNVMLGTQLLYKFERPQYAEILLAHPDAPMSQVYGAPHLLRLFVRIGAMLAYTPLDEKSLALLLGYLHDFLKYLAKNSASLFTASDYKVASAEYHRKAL
# PLK1, P53350, UniProt P53350, whole entry: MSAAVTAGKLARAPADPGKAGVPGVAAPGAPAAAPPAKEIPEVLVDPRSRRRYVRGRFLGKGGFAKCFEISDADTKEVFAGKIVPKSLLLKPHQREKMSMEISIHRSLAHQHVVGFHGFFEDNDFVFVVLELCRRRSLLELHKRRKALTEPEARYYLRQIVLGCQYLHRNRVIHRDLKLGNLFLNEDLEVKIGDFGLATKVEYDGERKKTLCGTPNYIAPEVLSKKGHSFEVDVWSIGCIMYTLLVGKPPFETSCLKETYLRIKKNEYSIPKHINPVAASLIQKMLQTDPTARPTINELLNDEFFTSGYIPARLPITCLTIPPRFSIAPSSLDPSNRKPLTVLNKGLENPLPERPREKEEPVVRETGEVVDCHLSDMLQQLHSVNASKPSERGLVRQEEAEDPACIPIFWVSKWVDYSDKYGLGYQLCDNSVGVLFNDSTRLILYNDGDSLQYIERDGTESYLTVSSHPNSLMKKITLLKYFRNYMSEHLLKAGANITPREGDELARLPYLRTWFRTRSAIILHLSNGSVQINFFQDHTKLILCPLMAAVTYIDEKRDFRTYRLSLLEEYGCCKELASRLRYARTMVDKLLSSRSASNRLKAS
# This is one part of the list. The list holds hits alone, and they repeat only in part.
# Key:
# Assay in all cases: PRISMA enrichment of interactor (LFQ) in peptide spot vs all other peptide spots (log2 fold change); higher = stronger / more specific binding of the interactor to the peptide
# HIST1H1D, P16402 = target: HIST1H1D, P16402
# Protocol: (§1)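 PRISMA: 15-aa overlapping tiles (offset 8 aa) of 60 microproteins, plus SOS1/GLUT1 control peptides, were spot-synthesized on cellulose membranes in triplicate. Membranes were incubated with benzonase-treated HEK293T lysate, and bound proteins were identified by LC-MS/MS with LFQ. Enrichment is the log2 fold change of each protein in one spot versus all other spots. Only interactors passing the significance cutoff are listed.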
# HIST2H2BE, Q16778 = target: HIST2H2BE, Q16778
# Protocol: as §1
# HMGB1, P09429 = target: HMGB1, P09429
# Protocol: as §1
# HMGB2, P26583 = target: HMGB2, P26583
# Protocol: as §1
# INCENP, Q9NQS7 = target: INCENP, Q9NQS7
# Protocol: as §1
# IQCB1, Q15051 = target: IQCB1, Q15051
# Protocol: as §1
# ISG20L2, Q9H9L3 = target: ISG20L2, Q9H9L3
# Protocol: as §1
# KRR1, Q13601 = target: KRR1, Q13601
# Protocol: as §1
# LETMD1, Q6P1Q0 = target: LETMD1, Q6P1Q0
# Protocol: as §1
# LYRM2, Q9NU23 = target: LYRM2, Q9NU23
# Protocol: as §1
# MAP7D1, Q3KQU3 = target: MAP7D1, Q3KQU3
# Protocol: as §1
# MAZ, P56270 = target: MAZ, P56270
# Protocol: as §1
# MORF4L1, Q9UBU8 = target: MORF4L1, Q9UBU8
# Protocol: as §1
# MORF4L2, Q15014 = target: MORF4L2, Q15014
# Protocol: as §1
# MRPL27, Q9P0M9 = target: MRPL27, Q9P0M9
# Protocol: as §1
# NCBP2AS2, Q69YL0 = target: NCBP2AS2, Q69YL0
# Protocol: as §1
# NECAP2, Q9NVZ3 = target: NECAP2, Q9NVZ3
# Protocol: as §1
# NIFK, Q9BYG3 = target: NIFK, Q9BYG3
# Protocol: as §1
# NOL12, Q9UGY1 = target: NOL12, Q9UGY1
# Protocol: as §1
# NOL7, Q9UMY1 = target: NOL7, Q9UMY1
# Protocol: as §1
# PCLAF, Q15004 = target: PCLAF, Q15004
# Protocol: as §1
# PLK1, P53350 = target: PLK1, P53350
# Protocol: as §1
# [1] = substrate: PPIF, P30405
# Protocol: as §1
# PUM3, Q15397 = target: PUM3, Q15397
# Protocol: as §1
# PYCR1, P32322 = target: PYCR1, P32322
# Protocol: as §1
# PYCR2, Q96C36 = target: PYCR2, Q96C36
# Protocol: as §1
# RBIS, Q8N0T1 = target: RBIS, Q8N0T1
# Protocol: as §1
# RBMX, P38159 = target: RBMX, P38159
# Protocol: as §1
# REPIN1, Q9BWE0 = target: REPIN1, Q9BWE0
# Protocol: as §1
# RPGRIP1L, Q68CZ1 = target: RPGRIP1L, Q68CZ1
# Protocol: as §1
# RPL39P5, Q59GN2 = target: RPL39P5, Q59GN2
# Protocol: as §1
# RPS19BP1, Q86WX3 = target: RPS19BP1, Q86WX3
# Protocol: as §1
# SERF2, P84101 = target: SERF2, P84101
# Protocol: as §1
# SRP14, P37108 = target: SRP14, P37108
# Protocol: as §1
# TFAM, Q00059 = target: TFAM, Q00059
# Protocol: as §1
# TMA16, Q96EY4 = target: TMA16, Q96EY4
# Protocol: as §1
# TXLNA, P40222 = target: TXLNA, P40222
# Protocol: as §1
# TXLNG, Q9NUQ3 = target: TXLNG, Q9NUQ3
# Protocol: as §1
# UTP11, Q9Y3A2 = target: UTP11, Q9Y3A2
# Protocol: as §1
# UTP23, Q9BRU9 = target: UTP23, Q9BRU9
# Protocol: as §1
# ZNF22, P17026 = target: ZNF22, P17026
# Protocol: as §1
# ZNF48, Q96MX3 = target: ZNF48, Q96MX3
# Protocol: as §1
# ZNF483, Q8TF39 = target: ZNF483, Q8TF39
# Protocol: as §1
# ZNF512, Q96ME7 = target: ZNF512, Q96ME7
# Protocol: as §1
# ZNF593, O00488 = target: ZNF593, O00488
# Protocol: as §1
# hCG_2014768 = target: hCG_2014768
# Protocol: as §1
binder,measurement,setting,value
KDVFEELLSQWDAAL [RP11-140K17.3],PRISMA enrichment of interactor (log2),"HIST1H1D, P16402",5.71
same,PRISMA enrichment of interactor (log2),"HIST2H2BE, Q16778",5.58
same,PRISMA enrichment of interactor (log2),"HMGB1, P09429",5.67
same,PRISMA enrichment of interactor (log2),"HMGB2, P26583",4.57
same,PRISMA enrichment of interactor (log2),"INCENP, Q9NQS7",5.69
same,PRISMA enrichment of interactor (log2),"IQCB1, Q15051",5.24
same,PRISMA enrichment of interactor (log2),"ISG20L2, Q9H9L3",4.02
same,PRISMA enrichment of interactor (log2),"KRR1, Q13601",4.66
same,PRISMA enrichment of interactor (log2),"LETMD1, Q6P1Q0",4.1
same,PRISMA enrichment of interactor (log2),"LYRM2, Q9NU23",3.85
same,PRISMA enrichment of interactor (log2),"MAP7D1, Q3KQU3",5.29
same,PRISMA enrichment of interactor (log2),"MAZ, P56270",4.51
same,PRISMA enrichment of interactor (log2),"MORF4L1, Q9UBU8",4.83
same,PRISMA enrichment of interactor (log2),"MORF4L2, Q15014",6.01
same,PRISMA enrichment of interactor (log2),"MRPL27, Q9P0M9",8.54
same,PRISMA enrichment of interactor (log2),"NCBP2AS2, Q69YL0",3.75
same,PRISMA enrichment of interactor (log2),"NECAP2, Q9NVZ3",4.39
same,PRISMA enrichment of interactor (log2),"NIFK, Q9BYG3",5.56
same,PRISMA enrichment of interactor (log2),"NOL12, Q9UGY1",5.39
same,PRISMA enrichment of interactor (log2),"NOL7, Q9UMY1",6
same,PRISMA enrichment of interactor (log2),"PCLAF, Q15004",4.54
same,PRISMA enrichment of interactor (log2),"PLK1, P53350",4.76
same,PRISMA enrichment of interactor (log2),[1],5.16
same,PRISMA enrichment of interactor (log2),"PUM3, Q15397",4.79
same,PRISMA enrichment of interactor (log2),"PYCR1, P32322",5.73
same,PRISMA enrichment of interactor (log2),"PYCR2, Q96C36",4.7
same,PRISMA enrichment of interactor (log2),"RBIS, Q8N0T1",4.48
same,PRISMA enrichment of interactor (log2),"RBMX, P38159",4.74
same,PRISMA enrichment of interactor (log2),"REPIN1, Q9BWE0",4.56
same,PRISMA enrichment of interactor (log2),"RPGRIP1L, Q68CZ1",5.39
same,PRISMA enrichment of interactor (log2),"RPL39P5, Q59GN2",4.75
same,PRISMA enrichment of interactor (log2),"RPS19BP1, Q86WX3",5.39
same,PRISMA enrichment of interactor (log2),"SERF2, P84101",6.42
same,PRISMA enrichment of interactor (log2),"SRP14, P37108",5.38
same,PRISMA enrichment of interactor (log2),"TFAM, Q00059",4.77
same,PRISMA enrichment of interactor (log2),"TMA16, Q96EY4",5.09
same,PRISMA enrichment of interactor (log2),"TXLNA, P40222",6.27
same,PRISMA enrichment of interactor (log2),"TXLNG, Q9NUQ3",6.18
same,PRISMA enrichment of interactor (log2),"UTP11, Q9Y3A2",5.32
same,PRISMA enrichment of interactor (log2),"UTP23, Q9BRU9",5.72
same,PRISMA enrichment of interactor (log2),"ZNF22, P17026",4.7
same,PRISMA enrichment of interactor (log2),"ZNF48, Q96MX3",3.92
same,PRISMA enrichment of interactor (log2),"ZNF483, Q8TF39",5.03
same,PRISMA enrichment of interactor (log2),"ZNF512, Q96ME7",4.73
same,PRISMA enrichment of interactor (log2),"ZNF593, O00488",5.05
same,PRISMA enrichment of interactor (log2),hCG_2014768,4.86

# Not a retest: an excerpt of the list.
binder,measurement,setting,value
KDVFEELLSQWDAAL [RP11-140K17.3],PRISMA enrichment of interactor (log2),"NOL7, Q9UMY1",6
same,PRISMA enrichment of interactor (log2),"PCLAF, Q15004",4.54
same,PRISMA enrichment of interactor (log2),"PLK1, P53350",4.76
same,PRISMA enrichment of interactor (log2),[1],5.16
same,PRISMA enrichment of interactor (log2),"PUM3, Q15397",4.79
same,PRISMA enrichment of interactor (log2),"PYCR1, P32322",5.73
same,PRISMA enrichment of interactor (log2),"PYCR2, Q96C36",4.7
same,PRISMA enrichment of interactor (log2),"RBIS, Q8N0T1",4.48
same,PRISMA enrichment of interactor (log2),"RBMX, P38159",4.74
same,PRISMA enrichment of interactor (log2),"REPIN1, Q9BWE0",4.56
same,PRISMA enrichment of interactor (log2),"RPGRIP1L, Q68CZ1",5.39
same,PRISMA enrichment of interactor (log2),"RPL39P5, Q59GN2",4.75
same,PRISMA enrichment of interactor (log2),"RPS19BP1, Q86WX3",5.39
same,PRISMA enrichment of interactor (log2),"SERF2, P84101",6.42
